Binding data for three molecules are collected here from article PMC9702540.

Results are given in words; binding and its absence hold for the method and conditions named. For some of these results: A result given as binding can be weak or reduced; the word gives no strength. Tags and fused reporters may be left off the sequences shown. For some of these results: In cells and extracts the contact can be indirect.

Assay [1] addresses GST-SREBP-1 (AA1-250) (Drosophila). As to the kind of experiment: pull-down; GST pull-down: GST-SREBP fragments as bait, His-tagged Cdk8 (AA1-262) or His-tagged MED15 as prey, read by Western blot; protocol as in Li et al., 2020; only the target purified.
The target of assay [2] is GST-SREBP-1-A (AA1-100) (Drosophila). The assay is described as above.
The target in assay [3] is GST-SREBP-1-A-1 (AA1-25) (Drosophila). Described as above.
Assay [4] deals with GST-SREBP-1-A-2 (AA1-50) (Drosophila). The assay is described as above.
Assay [5] addresses GST-SREBP-1-A-3 (AA1-75) (Drosophila). The assay is described as above.
Assay [6] concerns the target GST-SREBP-1-A-3 (AA1-75) with AA36-41 (DMLDII) mutated to six alanines (Drosophila). The description is as above.
The target in assay [7] is GST-SREBP-1-B (AA51-200) (Drosophila). The assay is described as above.
Assay [8] addresses GST-SREBP-1-C (AA151-250) (Drosophila). Described as above.
The target in assay [9] is GST-SREBP-2 (AA201-350, containing the bHLH-Zip domain) (Drosophila). The description is as above.
The target of assay [10] is GST-SREBP-3 (AA301-451) (Drosophila). Described as above.
The target in assay [11] is SREBP AA1-50 fused to the GAL4 DNA-binding domain (bait) (Drosophila). As to the kind of experiment: two-hybrid; yeast two-hybrid in AH109; SREBP AA1-50 as GAL4 DNA-binding domain bait, Cdk8 or MED15 as GAL4 activation domain prey; SD/-Leu/-Trp/-His with 2.5, 5 or 10 mM 3-AT.

B1: His-Cdk8-N (AA1-262) (domain or fragment, UniProt Q9VT57 1-262)
chain: MDYDFKMKTQIERTKVEDLFNYEGCKVGRGTYGHVYKAKWKETSDGKEYALKQIDGTGLSMSACREIALLRELKHQNVITLIRVFLSHNDRKVFLLIDYAEHDLWHIIKFHRAAKATKKQVVVPRGMVKSLLYQILDGIHYLHSNWVLHRDLKPANILVMGDGNERGRVKIADMGFARLFNAPLKPLADLDPVVVTFWYRAPELLLGARHYTKAIDIWAIGCIFAELLTSEPIFHCRQEDIKTSNPYHHDQLDRIFNVMGFP
Turning to B1, the binding entry in [1] was “binds”; in assay [2], “binds”; in [3], “no binding”; in assay [4] it was “binds”; in assay [5], “binds”; in assay [6], “no binding”. In addition, the binding entry in [7], in assay [8], in assay [9] and in assay [10] was “no binding” in each case.

B2: His-tagged full-length Drosophila MED15 protein (protein, UniProt Q9Y149 1-749)
chain: MTEDWQSQKFRQNVISKIHDLLPPNAQDQTKNAGVMENHIFRKSRTKDEYLGLVAKLFMHYKDMSRKSQQQQQQQQQQGGPPPNAEMGGGQNMMQDPLNALQNLASQGNRNPQMMPMGAGGGAPVPGGPGTASNLLQSLNQQRPGQQQMQPMSNIRGQMPMGAGGAGAQQMMQVQQMQQGGNAPGVMNVMGAGGGQNQGQIVGNPGQQMGVGVGMPNQMVGPGPNSGPAVGGAGGPNAAPGAGGPGPNQMQGGPMNVNAMQQMPPMQQIQQNQLGMGMNPMMRMGQGNGMGGPQGMPGQGMQGMPQGPHNVVGGPAGQQQVGGAGLPPNAVQQGGMNPMGGMGVNMPPNLQQKPNMPMGQAGQMFPGNRGGVGVGGQQPGQPFMRSSPSPADAQQLQQQAQLQQMQQQQQQLVVGNQTPTQQPPTPQMPTPNMIPSPALVPQSSPQMMQMQNSQRNIRQQSPSASINTPGQVTGNSPFNPQEEALYREKYKQLTKYIEPLKRMLAKISNDGTNVEKMTKMSKLLEILCNPTQRVPLETLLKCEKALEKMDLISYSGQQFGKSSNPLLEVINTTLQSPVANHTLYRTFRPTLELLFGTDITAPVPAKRPRVEEKSTSFEQEVPHVLQGEIARLDTKFKVKLDTTSQINNKAIRLICCLDDKRLPSVPPVSVSVPEEYPWQAPDCSLAEQEYSATPFLQTVQQALIARISKLPKNYSLSHLLDTWEMAVRQACSPQSKPRAVCELSTLLGV
Regarding B2, the binding entry is given as “binds” in assay [5] and “no binding” in assay [6].

B3: MED15 (full length) fused to the GAL4 activation domain (prey) (protein, UniProt Q9Y149 1-749)
chain: MTEDWQSQKFRQNVISKIHDLLPPNAQDQTKNAGVMENHIFRKSRTKDEYLGLVAKLFMHYKDMSRKSQQQQQQQQQQGGPPPNAEMGGGQNMMQDPLNALQNLASQGNRNPQMMPMGAGGGAPVPGGPGTASNLLQSLNQQRPGQQQMQPMSNIRGQMPMGAGGAGAQQMMQVQQMQQGGNAPGVMNVMGAGGGQNQGQIVGNPGQQMGVGVGMPNQMVGPGPNSGPAVGGAGGPNAAPGAGGPGPNQMQGGPMNVNAMQQMPPMQQIQQNQLGMGMNPMMRMGQGNGMGGPQGMPGQGMQGMPQGPHNVVGGPAGQQQVGGAGLPPNAVQQGGMNPMGGMGVNMPPNLQQKPNMPMGQAGQMFPGNRGGVGVGGQQPGQPFMRSSPSPADAQQLQQQAQLQQMQQQQQQLVVGNQTPTQQPPTPQMPTPNMIPSPALVPQSSPQMMQMQNSQRNIRQQSPSASINTPGQVTGNSPFNPQEEALYREKYKQLTKYIEPLKRMLAKISNDGTNVEKMTKMSKLLEILCNPTQRVPLETLLKCEKALEKMDLISYSGQQFGKSSNPLLEVINTTLQSPVANHTLYRTFRPTLELLFGTDITAPVPAKRPRVEEKSTSFEQEVPHVLQGEIARLDTKFKVKLDTTSQINNKAIRLICCLDDKRLPSVPPVSVSVPEEYPWQAPDCSLAEQEYSATPFLQTVQQALIARISKLPKNYSLSHLLDTWEMAVRQACSPQSKPRAVCELSTLLGV
In the case of B3, the binding result in [11] is on record as “binds”.
